Data from patent US20060106064A1, “Butyrophenones and sigma-1 receptor antagonists protect against oxidative-stress” (University of North Texas Health Science Center at Fort …, priority 2004, published 2006).
Like-named read-outs stand apart in the source and are kept apart here.

Tested on: HT-22 cells
Assay: in vitro protection assay, glutamate-induced oxidative stress HT-22 cell model (Calcein AM cell survival)
Conditions: Mus musculus
[1] = HT-22, read-out: Potency (EC50 ± SEM, nM)

For O=C(CCCN1CCC(O)(c2ccc(Cl)cc2)CC1)c1ccc(F)cc1 [Haloperidol, 4-[4-(4-chlorophenyl)-4-hydroxy-1-piperidyl]-1-(4-fluorophenyl)-butan-1-one], the EC50 (HT-22, read-out: In vitro Protective Potency (EC50 ± SEM, nM)) was 1.2 ± 0.4 nM, the EC50 (HT-22, read-out: Potency (EC50 ± SEM nM)) was 1.2 ± 0.4 nM and the EC50 [1] was 1.2 ± 0.4 nM.

Compound CN1CCN(C2=Nc3cc(Cl)ccc3Nc3ccccc32)CC1 [Clozapine] has an EC50 [1] of over 1000 nM.

In the case of Clc1ccc2c(c1)C(N1CCNCC1)=Nc1ccccc1O2 [Amoxapine], the EC50 [1] is reported as over 1000 nM.

CSc1ccc2c(c1)N(CCC1CCCCN1C)c1ccccc1S2 (stereo not drawn) [Thioridazine] showed an EC50 [1] of over 1000 nM.
